Patent publication US11690897B2, “Salt inducible kinase inhibitors for enhancing fertility” (The Board of Trustees of the University of Illinois, priority 2019, dated 2023)
Entries after “also recorded” stand apart in the source; their conditions may differ. For at least one compound, name, drawing or mass did not settle the structure.

The chains behind the UniProt entries cited, without tags or fusion partners. Where a name states a change or a piece, a line headed by the entry shows the natural chain unless it says otherwise.
UniProt Q9H0K1: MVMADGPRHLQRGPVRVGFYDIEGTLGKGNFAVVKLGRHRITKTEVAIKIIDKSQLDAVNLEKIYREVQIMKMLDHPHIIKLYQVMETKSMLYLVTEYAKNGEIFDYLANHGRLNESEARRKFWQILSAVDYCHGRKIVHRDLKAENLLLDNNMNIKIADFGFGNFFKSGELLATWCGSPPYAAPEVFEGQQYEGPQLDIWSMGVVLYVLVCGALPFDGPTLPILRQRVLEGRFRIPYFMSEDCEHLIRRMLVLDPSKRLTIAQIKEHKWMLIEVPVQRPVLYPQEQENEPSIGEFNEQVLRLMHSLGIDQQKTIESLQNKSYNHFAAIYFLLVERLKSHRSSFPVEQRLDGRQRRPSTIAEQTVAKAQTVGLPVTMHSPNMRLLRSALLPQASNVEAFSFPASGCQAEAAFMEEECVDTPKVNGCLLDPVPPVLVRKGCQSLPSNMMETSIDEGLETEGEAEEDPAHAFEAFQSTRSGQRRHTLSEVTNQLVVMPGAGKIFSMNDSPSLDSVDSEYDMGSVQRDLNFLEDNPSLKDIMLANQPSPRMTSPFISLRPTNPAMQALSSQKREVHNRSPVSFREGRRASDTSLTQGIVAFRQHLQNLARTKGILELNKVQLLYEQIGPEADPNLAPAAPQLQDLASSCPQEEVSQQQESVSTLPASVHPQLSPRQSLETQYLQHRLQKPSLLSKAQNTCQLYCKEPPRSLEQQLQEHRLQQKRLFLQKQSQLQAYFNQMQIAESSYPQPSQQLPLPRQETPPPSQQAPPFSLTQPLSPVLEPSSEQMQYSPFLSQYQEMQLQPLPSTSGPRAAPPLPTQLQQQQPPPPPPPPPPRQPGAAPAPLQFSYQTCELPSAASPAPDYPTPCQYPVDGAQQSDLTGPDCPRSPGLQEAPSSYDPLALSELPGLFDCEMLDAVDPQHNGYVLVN

Columns and labels:
SIK2 = SIK2 (Homo sapiens, UniProt Q9H0K1); settings: cited from earlier work
rat granulosa cells = assay: Cyp19a1 (aromatase) mRNA in primary rat granulosa cells, qPCR relative to Rpl19; format: cell-based
Protocol: Cyp19a1 mRNA levels were quantified 48 hours later and expressed as relative levels to ribosomal L19 protein (Rp119).
FIG. 5A, Expression of each SIK isoform in rat granulosa cells exposed to scrambled oligos (shSCR) or anti-SIK1 (shSIK1), SIK2 (shSIK2), or SIK3 (shSIK3) shRNAs. *p<0.05, **p<0.01, t-test, n=3. FIG. 5B, Cyp19a1, STARD1, and CYP11a1 relative mRNA expression levels after exposure to shSCR, shSIK1, shSIK2, or shSIK3. […] FIG. 5C, Inverse correlation between SIK2 knockdown with CYP19a1 expression in rat granulosa cells.
Cyp19a1 mRNA levels were quantified 48 hours later and expressed as relative levels to Rp119. Different letters represent significant differences (mean±SEM, n=5, one-way ANOVA followed by Tukey, p<0.05). FIG. 8B, Immature 23-day-old female mice were injected i.p. with YKL or vehicle (PBS). Two hours later, animals were treated with PMSG or PMSG plus YKL. The expression of CYP19a1, CYP11a1, and STARD1 was quantified 48 hours later. *p<0.05, t-test, n=7.
Rat Granulosa Cells. Rat granulosa cells were isolated from immature rats treated with estradiol for three days. Cells were cultured and treated as described for human granulosa cells. Rat experiments were approved by the Biologic Resources Laboratory (BRL) of the University of Illinois at Chicago.
mRNA Quantification. […]

Question: With `c1cc(-c2cnn3cc(-c4ccc(OCCN5CCCCC5)cc4)cnc23)ccn1` [Compound C, Dorsomorphin] as the compound, how does the “SIK2-mediated suppression of a cAMP reporter; SIK1 and SIK3 activity” value (SIK2) read?
Answer: The value was “prevent SIK2-mediated suppression of a cAMP reporter without suppressing SIK1 and SIK3 activity”.

Question: And the “FSH-stimulation of aromatase (Cyp19a1 mRNA)” value (rat granulosa cells; FSH plus inhibitor vs FSH, 48 hours, rat granulosa cells (rat and mouse))?
Answer: Its value is “potentiates FSH action; also recorded: strongly potentiated the stimulatory effect of FSH on CYP19A1”.

Question: What about the “Cyp19a1 mRNA levels, inhibitor alone” value (rat granulosa cells; absence of FSH, HG at 1 or 3 μM) of the same compound?
Answer: The value was “alone has no effect; also recorded: failed to upregulate CYP19A1 mRNA levels”.
